# Measurements: PubChem BioAssay AID2417 (National Center for Advancing Translational Sciences (NCATS), 2010)
# In all, about 140,000 compounds went through this assay and about 4,300 (3.1%) were called active. Inconclusive results, whose numbers are uncertain, are shown with a selection of clear calls.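 The calls were made as follows: active = readout at or below -70, meaning at least 70% loss of cells showing the perinucleolar compartment, a nuclear body marking cancer cells; inconclusive = readout between -30 and a set limit; inactive = the rest.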
# Assay: High Content Assay for Compounds that inhibit the Assembly of the Perinucleolar Compartment;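 also: plate controls were DMSO wells for no effect and camptothecin positive control wells for full effect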
# Conditions: PC3M PTB-GFP, PNC prevalence imaging, 16 h; at 10 µM; hits give low values
# Outline: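 Read-out is percentage of cells bearing a perinucleolar compartment, from automated 20x imaging of fixed, Hoechst-stained PC3M PTB-GFP cells. Cells were seeded 4 h, then exposed 16 h to compound (23 nl of library stock) in duplicate plates.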
row,Structure (SMILES),"activity change (PNC), negative = inhibition"
1,Cc1cc(Br)cc(C)c1OCCCCN(C)C,inactive: 90%
2,CCOC(=O)C1=C(N)OC2=C(C(=O)CC(C)(C)C2)C1c1ccco1 (stereo unspecified),inconclusive: -72.1%
3,O=C(Nc1ccc(N=Nc2ccccc2)cc1)c1cccc(Cl)c1,active: -111%
4,CCSc1nc2ccccc2n1Cc1ccccc1F,inconclusive: -37.4%
5,COC(=O)C1=C(C)N(c2ccc(C(=O)OC)cc2)C(=O)C1,inconclusive: -33.6%
6,CN(C)/C=C(\C(=O)c1ccc(F)cc1F)c1nnnn1-c1ccccc1,inconclusive: -57.7%
7,CC(=O)Nc1ccc(NC(=O)c2ccc(-n3c(C)ccc3C)cc2)cc1,inconclusive: -37.8%
8,O=C(CSc1nc(-c2ccco2)cc(C(F)(F)F)n1)NCc1cccs1,inconclusive: -41.1%
9,CCOC(=O)c1nnn(-c2nonc2N)c1C,inactive: -15.9%
10,CCc1nc(SCC(=O)Nc2cccc(C(F)(F)F)c2)c2c(=O)n(C)c(=O)n(C)c2n1,inconclusive: -45.9%
11,CCCN(CCC)CCNc1c(NC2CCN(C(=O)OCC)CC2)c(=O)c1=O,inconclusive: -56.6%
12,CCCCN(CC)CCNC(=O)CN1C(=O)COc2ccc(S(=O)(=O)N3CCCC3)cc21,inactive: 52.7%
13,O=C(O)CCCCCNS(=O)(=O)c1c(Cl)cccc1Cl,inconclusive: -74.5%
14,Cc1c(Cc2ccccc2)sc(NC(=O)/C=C/c2cccc3ccccc23)c1C(N)=O,inconclusive: -71.7%
15,O=C(c1ccccc1)c1ccccc1C(=O)N1CCOCC1,inactive: 9.78%
16,Cn1nc(N)c2c(-c3ccccc3)c(C#N)c(N)nc21,inconclusive: -53.1%
17,Cc1c(Cl)cccc1NC(CC(=O)c1ccccc1)C(=O)OCC(=O)c1cccs1 (stereo unspecified),inactive: -10.3%
18,O=C(O)CCNS(=O)(=O)c1ccc(Oc2ccccc2Cl)cc1,inactive: -14%
19,O=C(C1=C[C@@H]2[C@H]3C(=O)N(c4cccc(Cl)c4)C(=O)[C@H]3[C@@H](C(=O)c3ccc(Cl)cc3)N2C=C1)c1ccccc1,inactive: -13%
20,O=C(N/N=C\c1ccc(COc2ccc([N+](=O)[O-])cc2)o1)c1cccc(Cl)c1,inconclusive: -31.2%
21,Cc1nc2c(c(C)c1C#N)C(=O)c1ccccc1-2,active: -96.3%
22,CN1CCN(C2=Cc3cc(Cl)ccc3Sc3cc(F)ccc32)CC1,inactive: 43.3%
23,CCc1cccc2c(C(=O)CCl)c[nH]c12,inconclusive: -38.4%

# Filtered by structure: those above containing a COOH group.
row,Structure (SMILES),"activity change (PNC), negative = inhibition"
13,O=C(O)CCCCCNS(=O)(=O)c1c(Cl)cccc1Cl,inconclusive: -74.5%
18,O=C(O)CCNS(=O)(=O)c1ccc(Oc2ccccc2Cl)cc1,inactive: -14%

# Next part.

row,Structure (SMILES),"activity change (PNC), negative = inhibition"
1,O=C(c1cccnc1)c1cccnc1,active: -124%
2,CC1CC(C)CN(C(=O)c2ccc3c(=O)n(Cc4ccc5c(c4)OCO5)c(=S)[nH]c3c2)C1 (stereo unspecified),inconclusive: -71.4%
3,COc1ccc(Nc2nc(C)cc(C)c2C#N)cc1,inconclusive: -55.5%
4,COc1ccccc1-n1cnnc1SCC(=O)Nc1nc(C)c(Cl)cc1Cl,inconclusive: -47.9%
5,CCCSc1ccc2nc(NC(=O)OC)[nH]c2c1,inconclusive: -67.8%
6,CCCCCCCC(O)CC(CC1CCCCC1)C(=O)NN (stereo unspecified),inconclusive: -62%
7,COc1cccc(-n2cnc(=O)c3cccnc32)c1,inactive: -11.8%
8,CC1=[N+]([O-])C(C)(C)C(c2ccc(Br)cc2)=[N+]1[O-],inconclusive: -64.8%
9,Cc1cc(NCc2ccc3c(c2)OCO3)n2nc(C)nc2n1,inconclusive: -69.6%
10,Cc1cc(C(F)(F)F)c2sc(N)nc2n1,inconclusive: -48.5%
11,Cc1nn(-c2ccc(Cl)cc2)c2[nH]c(=O)c(CNCc3ccc4c(c3)OCO4)cc12,inconclusive: -45.6%
12,CN(C)c1ccc(/C=C(/NC(=O)c2ccccc2)C(=O)N/N=C/c2ccc([N+](=O)[O-])c(O)c2)cc1,inactive: 39.4%
13,CCCS(=O)(=O)N1CCCC(C(=O)NCCCN(CC)c2cccc(C)c2)C1 (stereo unspecified),inactive: 27.8%
14,NNC(=O)c1nnn(-c2nonc2N)c1-c1cccs1,inactive: 8.35%
15,Cc1n[nH]c(C)c1SCC(=O)Nc1ccc(F)cc1,active: -100%
16,Cc1ccc(OCC(=O)c2cc(C)n(-c3ccccc3)c2C)c([N+](=O)[O-])n1,inconclusive: -35.2%
17,COc1cc(Cl)c(S(=O)(=O)N2CC(C)OC(C)C2)cc1Cl (stereo unspecified),inconclusive: -41.8%
18,O=C(COC(=O)c1cccnc1Nc1ccccc1F)NCCN1C(=O)CSC1=O,inconclusive: -57.5%
19,COc1cc(CC(=O)NCc2ccccn2)cc(OC)c1OC,inactive: 9.16%
20,S=C(c1nc2ccccc2[nH]1)N1CCOCC1,inconclusive: -64.3%
21,Cc1ccc(CCNC(=O)C2CCN(S(=O)(=O)N3CCCC3)CC2)cc1,inconclusive: -32.8%
22,COc1ccc(NC(=O)c2cnc3n(c2=O)CCS3)cc1OC,inconclusive: -44%
23,COC(=O)c1cc2c(ccn2-c2ccc(F)cc2)n1Cc1ccc(OC)cc1,inconclusive: -36.5%

# Pulled by compound from above (2):
row,Structure (SMILES),"activity change (PNC), negative = inhibition"
3,COc1ccc(Nc2nc(C)cc(C)c2C#N)cc1,inconclusive: -55.5%
18,O=C(O)CCNS(=O)(=O)c1ccc(Oc2ccccc2Cl)cc1,inactive: -14%
